The whole screen tested about 52,000 sequences, of which about 210 (0.4%) were called active.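 Rule for the calls: active = gene whose silencing raises cell survival under the drug, median off-target-corrected z-score across its silencing RNAs 2 or more; inactive = the rest.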 This is one part of the list.

This experiment is described as follows: Resistance to Poly (ADP-Ribose) Polymerase inhibitor: Gene Identification via Genome-wide siRNA Screen. The settings on record: mouse BRCA2 R2336H ES cells, olaparib, CellTiter-Glo viability; stronger effect = higher value. Summed up: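 Mouse BRCA2 R2336H ES cells were reverse-transfected with siRNA (20 nM final), treated at 48 h with 500 nM olaparib, and read by CellTiter-Glo after 72 h. Scores: MAD-based z per siRNA, median per gene, seed off-target correction.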
With “GCGACAAGGCAAAGCUAGATT against 1110018J12Rik”, the z-score is inactive: -1.73.
“GGAUGGAGUUCACAUUUUCTT against 2700082D03Rik”: the z-score was inactive: -3.05.
To CGGGAAGUAGUGCAACACCTT against Taldo1 belongs inactive: 0.923; to GGGAGUGACUCAGAUCGAUTT against Atp6v1c1, inactive: -0.324; to GGAGCUGAUAAAUCUGAACTT against Dhrs7, inactive: -0.529.
To GGAAGUCGAGUUGAAAUCGTT against Hrsp12 belongs inactive: 0.674; to CAGGGCUCACAGAGUCUCCTT against Olfr190, inactive: -0.116.
On to GCUGUAUGGCUAAGCAGUGTT against Olfr113, for which the z-score was inactive: 5.23.
To CCCAUGUUCGAUGGGAAAGTT against Adprt1 belongs active: 0.293; to GGCAGAAACCAAGUUGGCUTT against Diablo, inactive: 1.05.
Take CCCAUAUUUGUGGUAAACATT against Gm78: the z-score was inactive: 1.15.
Turning to GGACCUGGUUCAGGUAUCATT against Col6a3, the z-score was inactive: -2.4.
To GGUACCGGAGUCUGAAACATT against Drp2 belongs inactive: -2.78.
To GGGCAAGAUUAAGACUUAUTT against Armcx1 belongs inactive: -1.63; to GGCAACAUGACAAUUGUGGTT against Olfr1215, inactive: 1.6; to “GGUUCGUUUUCAACUGGCGTT against 2010007H12Rik”, inactive: -0.413.
For the sequence GGUCACAGAUGAAAUUAUGTT against Ltbr, the z-score was inactive: 0.0691.
For the sequence “GCCUUGGCGACAAAGCUAATT against 4930506M07Rik”, the z-score was inactive: -0.0619.
Then CCUCUGCUUUAUGAUCAACTT against Gm867, with inactive: 0.531; and “CCAUCAAUCCUAAUGCUUATT against 4933417A14Rik”, with inactive: 0.582; and GCUGGAGAUGAUUGUCUGATT against Psmd8, with inactive: -3.5.
For GGAAUACACUUACCUAGGUTT against Tpd52l2, the z-score was inactive: 1.03.
To CCACGUUUUGACUGACUUCTT against Thnsl1 belongs inactive: -0.384.
In the case of GGUAAAAGGUGAAGAAAAATT against Nap1l3, the z-score was inactive: 0.773.
To “GCGGCAGAUCUUCGAUUUCTT against 2610200G18Rik” belongs inactive: -0.616; to GGACUCAGAGCUCUUUGACTT against Ipo13, inactive: 0.424.
CCAUGAGGAUGGAAACUACTT against Ranbp3: the z-score is inactive: 0.505.
Consider “GCUUGUUUAGUAUACAGCCTT against 4933412H03Rik”, for which the z-score is inactive: 1.15.
With GGCAAAGACAUUGAUCCACTT against AI315119, the z-score is inactive: -0.126.
Then GGAUACACUGUUUGAAUGUTT against Cks1, with inactive: -0.594; and GGAACUGCCUACCUAGAGATT against Mrps17, with inactive: -1.67.
Turning to “GCUAAUGGUAUAAAUGGAUTT against A130038L21Rik”, the z-score is inactive: 0.801.
Then “GGGUAGUUAUGACUAAAUUTT against 9430077C05Rik”, with inactive: -0.398; and CCUUUAUCAUUGGAUAACUTT against Dusp11, with inactive: 0.848; and GGCAGUUCUCCAGUGCUUUTT against Mtss1, with inactive: -0.0935.
To “GGACAGUUUGAUGAUGCCGTT against 2410022L05Rik” belongs inactive: -0.752.
Turning to GGAUAGGUUGAACAGGUUGTT against BC028528, the z-score is inactive: 0.0483.
Then “GGUUUUAGUAAACUUCCCATT against 2810485I05Rik”, with inactive: 0.715.
Take GCUAUGUGAGUUCCACAAATT against Rapsn: the z-score was inactive: 2.01.
Take CCUGUUCUAACUGUAUCUUTT against Pcdhb9: the z-score is inactive: -0.438.
In the case of GGUUUAAGAAGUCAACAUUTT against Slc36a4, the z-score was inactive: 1.11.
As to GCUAUGUCAACAGUAACAUTT against Mell1, the z-score is inactive: -1.2.
Then ACUCAAUGUGCUCAAAAAATT against Scnm1, with inactive: 0.0832; and GCCCAAAUCGCUUACUCAUTT against Rtn4ip1, with inactive: -1.26.
With GGUGCAACAAUCAUUUGAATT against Casp4, the z-score is inactive: 0.187.
To “GGCUCUUUUCUCUUUGCUGTT against F730108M23Rik” belongs inactive: -0.31.
Take CUUUGCUCUAUCUCUCAGCTT against Olfr504: the z-score is inactive: -0.122.
As for CCAUCGAGUAAAGUUUGAATT against AY616753, the z-score was inactive: -0.537.
As to GGACAACAUUGCCUGUACUTT against Islr, the z-score is inactive: -1.45.
Then GGUAGCCAAACUUCGUCGATT against Trim37, with inactive: -0.889.
Then CCCAUGCUCUCAAGACCAATT against Epn3, with inactive: 0.597.
As to CCUUUCCUACUCCCAACACTT against Egr1, the z-score is inactive: 0.197.
As to “GGCUUGUUCAAGAGAAGAUTT against 4933406J04Rik”, the z-score was inactive: -1.1.
To GGAGGUAAAAAGUGCCUUATT against Olfr1040 belongs inactive: -0.0372; to GGGCGACUAUGUGUGGACUTT against Mmp19, inactive: 1.97.
Regarding GGCUACACAGAAUAAUAAATT against Rpl14, the z-score was inactive: -3.08.
To GGACAGCUGGACCUAAAGGTT against Slco4a1 belongs inactive: 0.623; to GGUGAAGAAUCCACCUGAUTT against Eva1, inactive: -0.726.
In the case of CCCUCUAAGAAUUAAAAAGTT against BC060631, the z-score was inactive: 1.11.
To CCAUUGACUCCUUCAUCUUTT against Olfr988 belongs inactive: 0.944; to GCAACAGGUUAGAAUAGACTT against Scd3, inactive: -0.34; to CGAACAUCUCAGCAGUGAATT against Dapk3, inactive: 0.356.
As for GCAGAUUUUGACUAAAGGATT against Sbds, the z-score was inactive: 1.12.
Turning to GGUGCAAGAUCAAGAACUGTT against C1r, the z-score was inactive: -1.09.
Then “GCUGAGAGUAUCCUUAUUCTT against 6330505N24Rik”, with inactive: -0.187.
Then CCGAAAUCAUCUGAGAGCGTT against Rhced, with inactive: 1.01.

The values above are taken from PubChem BioAssay AID1347423 (Functional Genomics Laboratory (NCATS/FGL), 2020).
